# Some of the results follow.
# B1: SP15308B-bot-339-22-339 (Bacteroides ovatus) (protein)
# chain: NEWEDEQYEQYVSFKAPIASGSDGVTTIYVRYKDNGKVTYQLPIIVSGSTVNSQDRDIHIAVDKDTLKTLNIERFSLYRPELWYTEMEEDKYEFPETVHIPAGSCVELLNIDFNLQDIDMLEKWVLPLTIVDDGSYAYQSHPRKNYAKALLKVVPFNNYSGSYTASSMKVYTYINGKPDTNARTTDKRTGYVVDNNSIFFYAGLINEDMDKDMRKKYKINVHFKEDGTLDMKQDDPSNEMEFELIGTPTYSSTSVMDATRPYLERRYVQIMFEYDFQDFTYGGSGTEVIPIKYRVAGSMTLLRNINTQIPDEDQQIEW
# What was measured:
# Assay in all cases: glycan array binding signal (z-score within array); higher = stronger binding
# Details in all cases: glycan notation: IUPAC condensed, linker removed
# Fuc(a1-2)Gal = target: Fuc(a1-2)Gal
# Summary of the method: (§1)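 The binding signal is a Z-score computed within each array. Data were drawn from 3228 arrays in the Consortium for Functional Glycomics database, restricted to those with a known protein sequence. Scores were averaged over arrays of the same protein sequence at different concentrations or buffers, and over linkers, and negative values can be taken as non-binding.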
# Fuc(a1-2)Gal(b1-3)GalNAc = target: Fuc(a1-2)Gal(b1-3)GalNAc
# Summary of the method: as §1
# [1] = target: Fuc(a1-2)Gal(b1-3)GalNAc(a1-3)[Fuc(a1-2)]Gal(b1-4)Glc
# Summary of the method: as §1
# [2] = target: Fuc(a1-2)Gal(b1-3)GalNAc(a1-3)[Fuc(a1-2)]Gal(b1-4)GlcNAc
# Summary of the method: as §1
# [3] = target: Fuc(a1-2)Gal(b1-3)GalNAc(b1-3)Gal
# Summary of the method: as §1
# [4] = target: Fuc(a1-2)Gal(b1-3)GalNAc(b1-3)Gal(a1-4)Gal(b1-4)Glc
# Summary of the method: as §1
# [5] = target: Fuc(a1-2)Gal(b1-3)GalNAc(b1-4)[Neu5Ac(a2-3)]Gal(b1-4)Glc
# Summary of the method: as §1
# Fuc(a1-2)Gal(b1-3)GlcNAc = target: Fuc(a1-2)Gal(b1-3)GlcNAc
# Summary of the method: as §1
# [6] = target: Fuc(a1-2)Gal(b1-3)GlcNAc(b1-2)Man(a1-3)[Fuc(a1-2)Gal(b1-3)GlcNAc(b1-2)Man(a1-6)]Man(b1-4)GlcNAc(b1-4)GlcNAc
# Summary of the method: as §1
# [7] = target: Fuc(a1-2)Gal(b1-3)GlcNAc(b1-2)Man(a1-3)[Fuc(a1-2)Gal(b1-3)GlcNAc(b1-2)Man(a1-6)]Man(b1-4)GlcNAc(b1-4)[Fuc(a1-6)]GlcNAc
# Summary of the method: as §1
# [8] = target: Fuc(a1-2)Gal(b1-3)GlcNAc(b1-3)Gal(b1-4)Glc
# Summary of the method: as §1
# [9] = target: Fuc(a1-2)Gal(b1-3)GlcNAc(b1-3)GalNAc
# Summary of the method: as §1
# [10] = target: Fuc(a1-2)Gal(b1-3)GlcNAc(b1-3)[Fuc(a1-2)Gal(b1-3)GlcNAc(b1-6)]GalNAc
# Summary of the method: as §1
# [11] = target: Fuc(a1-2)Gal(b1-3)GlcNAc(b1-3)[Gal(b1-4)GlcNAc(b1-6)]Gal(b1-4)Glc
# Summary of the method: as §1
# [12] = target: Fuc(a1-2)Gal(b1-3)GlcNAc(b1-3)[Neu5Ac(a2-6)Gal(b1-4)GlcNAc(b1-6)]Gal(b1-4)Glc
# Summary of the method: as §1
# [13] = target: Fuc(a1-2)Gal(b1-3)GlcNAc6S
# Summary of the method: as §1
# [14] = target: Fuc(a1-2)Gal(b1-3)[Fuc(a1-4)]GlcNAc
# Summary of the method: as §1
# [15] = target: Fuc(a1-2)Gal(b1-3)[Fuc(a1-4)]GlcNAc(b1-2)Man(a1-3)[Fuc(a1-2)Gal(b1-3)[Fuc(a1-4)]GlcNAc(b1-2)Man(a1-3)]Man(b1-4)GlcNAc(b1-4)GlcNAc
# Summary of the method: as §1
# [16] = target: Fuc(a1-2)Gal(b1-3)[Fuc(a1-4)]GlcNAc(b1-2)Man(a1-3)[Fuc(a1-2)Gal(b1-3)[Fuc(a1-4)]GlcNAc(b1-2)Man(a1-6)]Man(b1-4)GlcNAc(b1-4)[Fuc(a1-6)]GlcNAc(b1-4)[Fuc(a1-6)]GlcNAc
# Summary of the method: as §1
# [17] = target: Fuc(a1-2)Gal(b1-3)[Fuc(a1-4)]GlcNAc(b1-3)[Fuc(a1-3)[Gal(b1-4)]GlcNAc(b1-6)]Gal(b1-4)Glc
# Summary of the method: as §1
# [18] = target: Fuc(a1-2)Gal(b1-3)[Fuc(a1-4)]GlcNAc(b1-3)[Gal(b1-4)GlcNAc(b1-6)]Gal(b1-4)Glc
# Summary of the method: as §1
# [19] = target: Fuc(a1-2)Gal(b1-4)Fuc(a1-3)]GlcNAc(b1-2)Man(a1-3)[Fuc(a1-2)Gal(b1-4)[Fuc(a1-3)]GlcNAc(b1-2)Man(a1-6)]Man(b1-4)GlcNAc(b1-4)GlcNAc
# Summary of the method: as §1
# Fuc(a1-2)Gal(b1-4)Glc = target: Fuc(a1-2)Gal(b1-4)Glc
# Summary of the method: as §1
# Fuc(a1-2)Gal(b1-4)Glc6S = target: Fuc(a1-2)Gal(b1-4)Glc6S
# Summary of the method: as §1
# Fuc(a1-2)Gal(b1-4)GlcNAc = target: Fuc(a1-2)Gal(b1-4)GlcNAc
# Summary of the method: as §1
# [20] = target: Fuc(a1-2)Gal(b1-4)GlcNAc(b1-2)Man
# Summary of the method: as §1
# [21] = target: Fuc(a1-2)Gal(b1-4)GlcNAc(b1-2)Man(a1-3)[Fuc(a1-2)Gal(b1-4)GlcNAc(b1-2)Man(a1-6)]Man(b1-4)GlcNAc(b1-4)GlcNAc
# Summary of the method: as §1
# [22] = target: Fuc(a1-2)Gal(b1-4)GlcNAc(b1-2)Man(a1-3)[Fuc(a1-2)Gal(b1-4)GlcNAc(b1-2)Man(a1-6)]Man(b1-4)GlcNAc(b1-4)[Fuc(a1-6)]GlcNAc
# Summary of the method: as §1
# [23] = target: Fuc(a1-2)Gal(b1-4)GlcNAc(b1-2)[Fuc(a1-2)Gal(b1-4)GlcNAc(b1-4)]Man(a1-3)[Fuc(a1-2)Gal(b1-4)GlcNAc(b1-2)Man(a1-6)]Man(b1-4)GlcNAc(b1-4)GlcNAc
# Summary of the method: as §1
# [24] = target: Fuc(a1-2)Gal(b1-4)GlcNAc(b1-3)Gal(b1-4)GlcNAc
# Summary of the method: as §1
binder,measurement,setting,value
B1,glycan array binding signal (z-score),Fuc(a1-2)Gal,-0.344
same,glycan array binding signal (z-score),Fuc(a1-2)Gal(b1-3)GalNAc,-0.379
same,glycan array binding signal (z-score),[1],-0.613
same,glycan array binding signal (z-score),[2],-0.366
same,glycan array binding signal (z-score),[3],-0.054
same,glycan array binding signal (z-score),[4],-0.142
same,glycan array binding signal (z-score),[5],-0.117
same,glycan array binding signal (z-score),Fuc(a1-2)Gal(b1-3)GlcNAc,-0.144
same,glycan array binding signal (z-score),[6],0.297
same,glycan array binding signal (z-score),[7],-0.245
same,glycan array binding signal (z-score),[8],-0.507
same,glycan array binding signal (z-score),[9],-0.737
same,glycan array binding signal (z-score),[10],0.592
same,glycan array binding signal (z-score),[11],-0.492
same,glycan array binding signal (z-score),[12],-0.481
same,glycan array binding signal (z-score),[13],1.23
same,glycan array binding signal (z-score),[14],-0.475
same,glycan array binding signal (z-score),[15],-0.198
same,glycan array binding signal (z-score),[16],0.336
same,glycan array binding signal (z-score),[17],0.141
same,glycan array binding signal (z-score),[18],0.02
same,glycan array binding signal (z-score),[19],0.796
same,glycan array binding signal (z-score),Fuc(a1-2)Gal(b1-4)Glc,-0.188
same,glycan array binding signal (z-score),Fuc(a1-2)Gal(b1-4)Glc6S,0.38
same,glycan array binding signal (z-score),Fuc(a1-2)Gal(b1-4)GlcNAc,-0.027
same,glycan array binding signal (z-score),[20],-0.211
same,glycan array binding signal (z-score),[21],0.848
same,glycan array binding signal (z-score),[22],-0.321
same,glycan array binding signal (z-score),[23],0.217
same,glycan array binding signal (z-score),[24],-0.58

# Part of the list above, bar-delimited.
binder | measurement | setting | value
B1 | glycan array binding signal (z-score) | [16] | 0.336
same | glycan array binding signal (z-score) | [17] | 0.141

# Source: the supplement of paper PMC8728848
